# Source: the supplement of paper PMC9254222
# Structures can show the parent of a compound that is named as a salt. The full ranking holds about 1,100 compounds; the median of “Renilla luciferase signal (cell health) relative to plate median” is about 0.97, and the highest 2% start at about 1.6. This is a selection; strong and weak results do not stand in their true shares.
# System: HEK293T (UBE3A T485A transfected, BAR Wnt reporter)
# Experiment: Renilla luciferase signal (cell health) relative to plate median (fold (linear ratio)); higher = higher Renilla signal
# Conditions: 24 h
# In short: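 Using Fugene 6, HEK293T cells in white 384-well plates (4500 cells/well; DMEM, 10% FBS, 37°C, 5% CO2) were transfected with a BAR firefly luciferase Wnt reporter, TK-Renilla and an expression plasmid. After four hours, robots dosed the chemicals at 0.01–100 uM, and a Dual-Glo luciferase readout followed 24 h later. Per-plate median-centred firefly/Renilla ratios gave Wnt activity, while per-plate median-centred raw Renilla signals gave cell health. Four biological replicates were averaged.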
SMILES,Renilla luciferase signal (concentration: 0.1 uM),Renilla luciferase signal (concentration: 1 uM),Renilla luciferase signal (concentration: 10 uM),Renilla luciferase signal (concentration: 100 uM),Renilla luciferase signal (concentration: 0.01 uM)
CCCCOC(=O)CC(CC(=O)OCCCC)(OC(C)=O)C(=O)OCCCC [Acetyl tributyl citrate],1.06,0.871,0.945,1.23,
CCOC(=O)NCCOc1ccc(Oc2ccccc2)cc1 [Fenoxycarb],0.74,0.839,0.924,0.226,0.711
CC#C[C@]1(O)CC[C@H]2[C@@H]3CCC4=CC(=O)CCC4=C3[C@@H](c3ccc(N(C)C)cc3)C[C@@]21C [Mifepristone],0.953,0.805,0.722,0.151,
O=C(O)c1cc(/N=N/c2ccc(S(=O)(=O)Nc3ccccn3)cc2)ccc1O [Sulfasalazine],0.788,0.885,0.691,0.277,
COC(C)COC(C)COC(C)CO (stereo unspecified) [Tripropylene glycol monomethyl ether],0.985,1.09,1.1,1.27,
COC(=O)c1c(Cl)c(Cl)c(C(=O)OC)c(Cl)c1Cl [Chlorthal-dimethyl],0.742,0.816,0.771,0.813,
CCCCCCCCCCCCc1ccccc1 [Dodecylbenzene],0.831,0.804,0.858,0.903,
CN1CCC[C@H]1c1cccnc1 [Nicotine],0.905,0.751,0.88,0.934,
O=C(c1ccccc1)C1CCCCC1 [Cyclohexylphenylketone],0.926,0.954,1.01,1.26,
CCCOc1sc(C(=O)N2CCC(c3cc(CN)ccc3F)CC2)c(C)c1Br.Cl,0.999,1.19,0.874,0.755,
O=C(O)CC(O)C(=O)O (stereo unspecified) [Malic acid],1.33,1.26,1.32,1.29,
CCCCN1C(=O)[C@@H]([C@H](O)C2CCCCC2)NC(=O)C12CCN(Cc1ccc(Oc3ccc(C(=O)O)cc3)cc1)CC2.Cl [Aplaviroc hydrochloride],,,,2.23,
"Nc1ccccc1N [1,2-Phenylenediamine]",1.07,0.972,0.692,0.0666,
O=c1[nH]c2ccc(S(=O)CCN3CCC(Cc4ccc(F)cc4)CC3)cc2o1 (stereo unspecified) [Besonprodil],0.825,0.844,0.693,0.564,
"O=C(OCCCCCOC(=O)c1ccccc1)c1ccccc1 [Pentane-1,5-diyl dibenzoate]",0.301,0.223,0.206,0.386,
CC1CCC(NC(=O)N(CCCl)N=O)CC1 (stereo unspecified) [Semustine],1.39,1.21,1.12,0.955,0.916
CCCCCCCC[Si](OCC)(OCC)OCC [Triethoxyoctylsilane],0.912,0.893,0.948,1.09,
"CC(C)(c1cc(Br)c(O)c(Br)c1)c1cc(Br)c(O)c(Br)c1 [3,3',5,5'-Tetrabromobisphenol A]",0.97,0.886,0.811,0.0562,
"Nc1cccc(N)c1 [1,3-Benzenediamine]",1.19,1.05,1.19,1.74,
CCN(C(=O)c1cc(C)cc(OC[C@H](C)Nc2ccncc2)c1)C(C)C.Cc1ccc(S(=O)(=O)O)cc1,0.742,0.752,0.648,0.381,
C=C(C)C(N)=O [Methacrylamide],1.03,1.12,1.11,1.2,
CC(C)=CCCC(C)CCO (stereo unspecified) [Citronellol],1.04,1.11,1.11,1.38,

# Look-ups from the entries so far:
# Renilla luciferase signal (concentration: 1 uM) with `O=C(OCCCCCOC(=O)c1ccccc1)c1ccccc1` [Pentane-1,5-diyl dibenzoate] is entered as 0.223
# Renilla luciferase signal (concentration: 100 uM) with `CCCCN1C(=O)[C@@H]([C@H](O)C2CCCCC2)NC(=O)C12CCN(Cc1ccc(Oc3ccc(C(=O)O)cc3)cc1)CC2.Cl` [Aplaviroc hydrochloride] is entered as 2.23

# Next results follow:

SMILES,Renilla luciferase signal (concentration: 0.1 uM),Renilla luciferase signal (concentration: 1 uM),Renilla luciferase signal (concentration: 10 uM),Renilla luciferase signal (concentration: 100 uM),Renilla luciferase signal (concentration: 0.01 uM)
"O=S1(=O)CCCO1 [1,3-Propane sultone]",1.1,1.1,1.09,1.54,
"Cc1cccc(C)c1O [2,6-Dimethylphenol]",0.725,0.771,0.584,1.07,
CCOc1cccc(-n2cc(C(=O)N3CCN(c4cc(C(=O)[O-])c5ccccc5c4)CC3)nc2-c2ccc(C)cc2)c1.[Na+],0.869,0.966,0.903,0.0785,
O=c1ccn(C2OC(COP(=O)(O)OP(=O)(O)OP(=O)(O)O)C(O)C2O)c(=O)[nH]1 (stereo unspecified),,,,2.08,
CC(=O)/C(C)=C/C1C(C)=CCCC1(C)C (stereo not drawn) [alpha-Isomethylionone],0.734,0.712,0.76,1.3,
"CC(C)=CCCC(C)=CC=O [3,7-Dimethyl-2,6-octadienal]",0.863,0.83,1.08,1.09,
CC(=O)OCCC(C)C [3-Methylbutyl acetate],0.826,0.817,0.875,1.05,
"CN(C)C=O [N,N-Dimethylformamide]",0.934,0.859,0.913,1.05,
O=C(O)CCN(C1(C(=O)NO)CCCC1)S(=O)(=O)c1ccc(Oc2ccc(F)cc2)cc1,0.951,0.927,1.02,1.47,
CC(C)(C)C(O)C(Cc1ccc(Cl)cc1)n1cncn1 (stereo unspecified) [Paclobutrazol],,,,1.62,
O=C1c2c(O)cccc2Cc2cccc(O)c21 [Anthralin],1.1,0.951,0.986,0.834,
Cc1c(C)c2c(c(C)c1O)CCC(C)(CCCC(C)CCCC(C)CCCC(C)C)O2 (stereo not drawn) [Vitamin E (alpha-tocopherol)],1.02,0.963,1.28,1.99,1.15
O.O=C1[N-]S(=O)(=O)c2ccccc21.[Na+] [Sodium saccharin hydrate],1.05,1.15,1.35,1.71,
O=C(O)CN(CC(=O)O)CC(=O)O [Nitrilotriacetic acid],0.952,1,1.15,1.37,
CN(C)C(=O)NC1(c2ccccc2)CCN(CC[C@@]2(c3ccc(F)c(F)c3)CN(C(=O)c3ccccc3)CCO2)CC1.Cl,0.958,1.12,0.963,0.0974,
CCCCCCCCCCCCc1ccccc1S(=O)(=O)O [Dodecylbenzenesulfonic acid],0.733,0.796,0.72,0.358,
CCn1nc(Cc2ccccc2)cc1C1CCN(C[C@H]2C[C@H](N(C)[C@@H](C(=O)O)C(C)C)C[C@@H]2c2cccc(F)c2)CC1,0.87,0.89,0.671,0.298,
Oc1ccccc1O [Catechol],0.854,0.923,0.714,0.0658,
CC(=O)Nc1ccc(O)cc1 [Acetaminophen],0.68,0.735,0.812,1.3,
C#CCOC(=O)[C@@H](C)Oc1ccc(Oc2ncc(Cl)cc2F)cc1 [Clodinafop-propargyl],1.11,1.04,1.01,0.269,0.926
Cc1ccc(C(C)(C)C)c(O)c1 [2-tert-Butyl-5-methylphenol],0.848,0.903,0.918,1.21,
COc1cc(C=O)ccc1O [4-Hydroxy-3-methoxybenzaldehyde],0.805,0.833,0.848,0.902,

SMILES,Renilla luciferase signal (concentration: 0.1 uM),Renilla luciferase signal (concentration: 1 uM),Renilla luciferase signal (concentration: 10 uM),Renilla luciferase signal (concentration: 100 uM),Renilla luciferase signal (concentration: 0.01 uM)
CCOC(N)=O [Urethane],0.917,0.828,0.744,1.11,
CCN(Cc1c(F)cccc1Cl)c1c([N+](=O)[O-])cc(C(F)(F)F)cc1[N+](=O)[O-] [Flumetralin],0.795,0.84,1,0.766,1.1
CCCCCCC(C=O)=Cc1ccccc1 [2-Benzylideneoctanal],1.03,1.02,1.17,1.41,
"O=C1OC(=O)C2C3C=CC(C3)C12 (stereo unspecified) [2-Norbornene-5,6-dicarboxylic anhydride]",0.885,0.853,0.966,1.39,
NC(=O)N(O)[C@@H]1C=C[C@H](Oc2cccc(Oc3ccc(F)cc3)c2)C1,1.08,0.968,1.14,0.801,
Cn1c(=O)c2c(ncn2C)n(C)c1=O [Caffeine],,,,1.67,
CCC(C)N(C)C(=O)c1cc2ccccc2c(-c2ccccc2Cl)n1 (stereo unspecified),1.12,0.996,1.2,0.598,
"Nc1cccc2c(N)cccc12 [1,5-Naphthalenediamine]",0.805,0.822,0.856,0.73,
COCCOCCOCCOC [Triethylene glycol dimethyl ether],0.87,0.826,0.823,0.956,
O=C(O)c1cn(C2CC2)c2cc(N3CCNCC3)c(F)cc2c1=O [Ciprofloxacin],0.893,1.01,0.9,0.336,1.06
COC(=O)c1ccccc1O [Methyl salicylate],1.22,1.13,1.23,0.53,
"CC(C)(C)c1ccc(O)c(C(C)(C)C)c1 [2,4-Di-tert-butylphenol]",1.1,0.968,1.12,1.14,
Cc1nc(-c2ccc3c(c2)CCN(CCC2CCC(NC(=O)/C=C/c4ccc(F)cc4)CC2)CC3)no1.Cl (stereo unspecified),0.843,0.783,0.931,1.05,
COc1ccc(-n2nc(C(F)F)cc2-c2ccc(S(C)=O)cc2)cc1 (stereo unspecified),0.947,1.1,1.03,0.786,
CCCCCCCCCCCCCCCCOS(=O)(=O)[O-].[Na+] [Sodium hexyldecyl sulfate],1.11,1.05,1.11,0.434,
CCCCc1nc2cccnc2n1Cc1ccc(-c2ccccc2-c2nnn[n-]2)cc1.[Na+],1.02,0.923,0.981,0.506,
OC1CCC(C2CCCCC2)CC1 (stereo unspecified) [4-Cyclohexylcyclohexanol],1.08,1.05,0.999,1.11,
c1ccc2[nH]c(-c3cscn3)nc2c1 [Thiabendazole],0.945,1.02,1.02,1.3,0.821
O=CCCCC=O [Glutaraldehyde],0.836,0.853,0.868,0.828,
CC(=O)N1CCN(c2ccc(OC[C@H]3CO[C@](Cn4ccnc4)(c4ccc(Cl)cc4Cl)O3)cc2)CC1 [Ketoconazole],0.861,1.05,0.736,0.18,
